In patent US20110189154A1 one finds binding data, which are given here for one molecule.

Results are given in words; binding and its absence hold for the method and conditions named. In cells and extracts the contact can be indirect. Some results given as binding are weak or reduced against the parent protein; the word gives no strength. Sequences can lack the tags named with a protein.

Assay [1] deals with T1, Tsa1 (S. cerevisiae 2-Cys peroxyredoxin) (S. cerevisiae) (UniProt P34760).
T1 sequence (looked up): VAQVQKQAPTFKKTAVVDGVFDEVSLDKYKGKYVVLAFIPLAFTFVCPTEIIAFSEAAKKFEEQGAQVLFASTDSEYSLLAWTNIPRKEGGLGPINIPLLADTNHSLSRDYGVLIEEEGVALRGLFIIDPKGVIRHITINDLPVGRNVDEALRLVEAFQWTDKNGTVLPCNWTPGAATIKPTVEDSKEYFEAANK
The assay is described as follows: copurification with 6His-Srx1, MALDI-TOF of reduced and nonreduced bands (both proteins in the 55 kDa band).

Assay [2] deals with T1, Tsa1 (S. cerevisiae 2-Cys peroxyredoxin) (S. cerevisiae). Description: copurification on Ni-NTA, SDS-PAGE, Coomassie, MALDI-TOF (FIG. 7b).

B1: 6His-Srx1 (S. cerevisiae sulfiredoxin Srx1 with six histidines at its N-terminal end) (enzyme)
chain: HHHHHHMSLQSNSVKPTEIPLSEIRRPLAPVLDPQKIDAMVATMKGIPTASKTCSLEQAEAAASAGELPPVDVLGVRVKGQTLYYAFGGCHRLQAYDRRARETQNAAFPVRCRVLPATPRQIRMYLGSSLDIE
Consider B1, for which the binding entry in assay [1] and in assay [2] was “binds” each time.
